The results in this text go back to the supplement of paper PMC12823440, “Inhibitors supercharge kinase turnover through native proteolytic circuits” (Nature, 2025).

The chains behind the UniProt entries cited, without tags or fusion partners.
UniProt P49137, whole entry, looked up: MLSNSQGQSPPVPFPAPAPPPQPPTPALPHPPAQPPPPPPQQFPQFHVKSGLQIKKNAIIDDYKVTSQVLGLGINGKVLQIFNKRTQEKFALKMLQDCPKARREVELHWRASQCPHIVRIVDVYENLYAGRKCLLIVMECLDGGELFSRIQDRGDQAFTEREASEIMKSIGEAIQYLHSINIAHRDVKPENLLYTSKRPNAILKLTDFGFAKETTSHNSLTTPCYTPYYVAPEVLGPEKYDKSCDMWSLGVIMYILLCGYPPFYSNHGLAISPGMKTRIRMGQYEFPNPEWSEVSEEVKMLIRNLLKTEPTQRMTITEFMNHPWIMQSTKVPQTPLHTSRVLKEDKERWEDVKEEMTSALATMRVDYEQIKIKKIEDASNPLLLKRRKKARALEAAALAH

Molecules are shown by their SMILES. This is one part of the list. The calls rarely recur for the same compound in another form.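 In K562 cells expressing nanoluciferase-fused kinases, luminescence was recorded at 4 h intervals between 2 and 18 h, normalized as percent of control with DMSO at 100% and a positive control at 0%. A significant (2 sigma) signal drop marks a time point as decreased. The authors' rule for a hit is not shown and takes in more than the number of time points.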

This assay addresses MAPKAPK2 (UniProt P49137). The assay is described as follows: number of time points (of 5) at which kinase-Nluc abundance scored as decreased, DMSO-normalised (count); higher = more persistent destabilization. To be noted: K562; 2-18 h.
`CCc1c(C(=O)NNC(=O)C(O)c2cc(F)cc(F)c2)ccc(O)c1C` (stereo not given) (10 µM): the “number of time points” value was determined as 0. Under `COc1cc2ncnc(Nc3ccc(Cl)cc3F)c2cc1OC` (10 µM) stands 0. Consider `COc1cc(/C=C/C(=O)NCC(O)c2ccc(O)cc2)ccc1O` (stereo not given) [N-Feruloyloctopamine] (2.5 µM), for which the “number of time points” value was 0. Under `NC(=O)c1nc(Nc2ccccc2)sc1NC(=O)C1CCCCC1` (10 µM) stands 0; under `O=c1cc(CN2CCOCC2)occ1OCCCCCSc1ccnc2cc(C(F)(F)F)ccc12` (10 µM), 0. For `O=C(O)CCC(=O)Nc1ccc(Br)cn1` [Bikinin] (10 µM), the “number of time points” value is 0. Under `CC[C@@H](Oc1nc(Oc2cc(C)cc(-c3cccc(CN)c3)c2)c(F)cc1F)C(=O)O` (10 µM) stands 0. Turning to `C[C@]1(O)CCN(c2nc(N3C[C@H](O)[C@@H](O)C3)cc(C(F)(F)F)c2C#N)C1` (10 µM), the “number of time points” value came to 0. Under `COc1ccccc1-c1cc(Nc2cccc(CS(N)(=O)=O)c2)ncn1` (10 µM) stands 0; under `CC(=O)c1c(C)cc2cccc(O)c2c1O` [Nepodin] (10 µM), 0. For the compound `NC(=O)c1ccc2[nH]ccc2c1` (10 µM), the “number of time points” value was 0. Consider `COc1cc2c(cc1OC)CN(S(=O)(=O)c1ccc(OC)c(N3CCN(C(=O)c4ccc(F)cc4C(F)(F)F)CC3)c1)CC2` (10 µM), for which the “number of time points” value was 0. Under `OCCn1cc(-c2ccc3c(c2)CC/C3=N\O)c(-c2ccncc2)n1` (10 µM) stands 0; under `C[C@@H]1CC[C@@H](Nc2nc(NC(C)(C)C)ncc2C(N)=O)C[C@H]1O` (10 µM), 0. Under `CCc1cc2c(cc1N1CCC(N3CCOCC3)CC1)C(C)(C)c1[nH]c3cc(C#N)ccc3c1C2=O` [Alectinib] (10 µM) stands 0.
